Values from PubChem BioAssay AID1259254 (NCATS, 2017).
The deposit covers about 59,000 reagents; below is a random part of them. About 1,550 of them (2.6%) count as active. 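G2 share is only a proxy for re-replication; each gene was hit by three separate siRNAs, and active genes were retested.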 The numbers tell different reagents against one gene apart. Further read-outs or replicates are left out here. Not stated in the record: the amount of reagent.

Assay: 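Finding genes that stop cells copying their DNA twice in one cycle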 (primary screen)
System: human HCT116 colorectal cancer cells
Reagents: single siRNA against human genes
Time to read-out: 3 days
Measurement: 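Imaged Hoechst DNA stain sorts each cell into a cycle phase by DNA amount; per plate, G2 fraction set to 0% for non-targeting and 100% for GMNN siRNA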
Scale: G2 robust z-score and G2 cells, % of GMNN control: higher = more G2 cells, more excess DNA replication
Hit rule: 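An siRNA counts as active if its G2 robust z-score lies at least 5 MADs above the screen median; here such calls match roughly 38% of GMNN control or more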

With VN1R2 (vomeronasal 1 receptor 2) #1, what does the deposit list?
G2 robust z-score: -1.07; G2 cells, % of GMNN control: -4.59; Outcome: inactive

For VN1R2 (vomeronasal 1 receptor 2) #2, what was measured?
G2 robust z-score: 0.295; G2 cells, % of GMNN control: 5.05; Outcome: inactive

With VN1R2 (vomeronasal 1 receptor 2) #3, how do the results read?
G2 robust z-score: 0.908; G2 cells, % of GMNN control: 9.35; Outcome: inactive

Which result is listed for CD47 (CD47 molecule) #1?
G2 robust z-score: -0.0871; G2 cells, % of GMNN control: 2.35; Outcome: inactive

What is on record for CD47 (CD47 molecule) #2?
G2 robust z-score: 0.796; G2 cells, % of GMNN control: 8.57; Outcome: inactive

What did the screen give for CD47 (CD47 molecule) #3?
G2 robust z-score: 0.702; G2 cells, % of GMNN control: 7.91; Outcome: inactive

Which result is listed for ORC4 (origin recognition complex subunit 4) #1?
G2 robust z-score: -0.608; G2 cells, % of GMNN control: -1.31; Outcome: inactive

For ORC4 (origin recognition complex subunit 4) #2, what does the deposit list?
G2 robust z-score: 0.108; G2 cells, % of GMNN control: 3.73; Outcome: inactive

With ORC4 (origin recognition complex subunit 4) #3, how do the results read?
G2 robust z-score: 0.673; G2 cells, % of GMNN control: 7.7; Outcome: inactive

For THOC7 (THO complex subunit 7) #1, what does the deposit list?
G2 robust z-score: 0.31; G2 cells, % of GMNN control: 5.15; Outcome: inactive

For THOC7 (THO complex subunit 7) #2, what was measured?
G2 robust z-score: -0.765; G2 cells, % of GMNN control: -2.42; Outcome: inactive

With THOC7 (THO complex subunit 7) #3, what does the deposit list?
G2 robust z-score: -0.671; G2 cells, % of GMNN control: -1.76; Outcome: inactive

Which result is listed for ARHGAP27P1 (Rho GTPase activating protein 27 pseudogene 1) #1?
G2 robust z-score: -0.503; G2 cells, % of GMNN control: -0.572; Outcome: inactive

What did the screen give for ARHGAP27P1 (Rho GTPase activating protein 27 pseudogene 1) #2?
G2 robust z-score: 1.51; G2 cells, % of GMNN control: 13.6; Outcome: inactive

For ARHGAP27P1 (Rho GTPase activating protein 27 pseudogene 1) #3, what was measured?
G2 robust z-score: 0.0322; G2 cells, % of GMNN control: 3.19; Outcome: inactive

For ABCC4 (ATP binding cassette subfamily C member 4 (PEL blood group)) #1, what does the deposit list?
G2 robust z-score: -1.15; G2 cells, % of GMNN control: -5.13; Outcome: inactive

What is on record for ABCC4 (ATP binding cassette subfamily C member 4 (PEL blood group)) #2?
G2 robust z-score: -0.967; G2 cells, % of GMNN control: -3.83; Outcome: inactive

For ABCC4 (ATP binding cassette subfamily C member 4 (PEL blood group)) #3, what does the deposit list?
G2 robust z-score: 4.07; G2 cells, % of GMNN control: 31.6; Outcome: inactive

For UNC79 (unc-79 subunit of NALCN channel complex) #1, what was measured?
G2 robust z-score: -0.0741; G2 cells, % of GMNN control: 2.45; Outcome: inactive

For UNC79 (unc-79 subunit of NALCN channel complex) #2, what does the deposit list?
G2 robust z-score: -0.445; G2 cells, % of GMNN control: -0.161; Outcome: inactive

Which result is listed for UNC79 (unc-79 subunit of NALCN channel complex) #3?
G2 robust z-score: -0.931; G2 cells, % of GMNN control: -3.59; Outcome: inactive

For CDH3 (cadherin 3) #1, what does the deposit list?
G2 robust z-score: -0.829; G2 cells, % of GMNN control: -2.87; Outcome: inactive

With CDH3 (cadherin 3) #2, what does the deposit list?
G2 robust z-score: 1.35; G2 cells, % of GMNN control: 12.5; Outcome: inactive

For CDH3 (cadherin 3) #3, how do the results read?
G2 robust z-score: 0.0113; G2 cells, % of GMNN control: 3.05; Outcome: inactive

2 successive records already listed:
CD47 (CD47 molecule) #1 — G2 robust z-score = -0.0871; G2 cells, % of GMNN control = 2.35; Outcome = inactive
CD47 (CD47 molecule) #2 — G2 robust z-score = 0.796; G2 cells, % of GMNN control = 8.57; Outcome = inactive
